The list shows a part of the results.

The chains behind the UniProt entries cited, without tags or fusion partners.
UniProt Q0JBA9, entry or part of it: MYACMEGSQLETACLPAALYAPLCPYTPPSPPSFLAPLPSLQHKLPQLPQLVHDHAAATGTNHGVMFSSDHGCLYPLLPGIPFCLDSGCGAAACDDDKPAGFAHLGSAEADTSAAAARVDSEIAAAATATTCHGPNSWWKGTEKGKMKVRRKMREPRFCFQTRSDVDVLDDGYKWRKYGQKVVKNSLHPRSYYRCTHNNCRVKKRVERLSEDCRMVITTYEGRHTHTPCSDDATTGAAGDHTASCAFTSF

Experimental findings from publication PMC7819943, “Rice protein-binding microarrays: a tool to detect cis-acting elements near promoter regions in rice” are described below.

The assay concerns the target OsWRKY34 (Oryza sativa, UniProt Q0JBA9 1-250). Nature of the assay: protein-binding microarray (RPBM); PBS, 2% BSA, 51.3 ng/ul salmon testes DNA, 50 uM zinc acetate, 200 nM TF, 25 C, 1 h; high values mean tight binding. Conditions: protein: recombinant; tags: N-terminal polyhistidine and DsRed monomer fusion (pET32a); label: CyDye5-dUTP incorporated in the synthesized complementary strand; 3' TTTTT single-stranded linker to array surface; dsDNA, one strand shown. Summed up: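 A custom Agilent array was converted to double-stranded form by primer extension with Cy5-dUTP and blocked with 2% BSA. Protein at 200 nM in PBS with 2% BSA, salmon testes DNA and 50 µM zinc acetate was applied for 1 h at 25 °C, followed by washing. The proteins were polyhistidine–DsRed N-terminal fusions of transcription factors, expressed in E. coli BL21-CodonPlus and Ni–NTA-purified. The binding signal is per-feature fluorescence intensity (arbitrary units) from an Axon 4000B scanner.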
For “CATTGCCAGTTTTGTTGCTACTCCACTGATATGGTTTTTCCGGAGTCACCTAGTGCAG”, the binding signal is 10800 fluorescence intensity (a.u.).

On to “TCTTATTCCTTGTCCCAACTCCAACTGCAGAGGAAGCTACCGGAGTCACCTAGTGCAG”, for which the binding signal was 9350 fluorescence intensity (a.u.).

Consider “ATCAGAACCGCCACTCAAGTTTCAGTAGTTTGGTCTTGTACGGAGTCACCTAGTGCAG”, for which the binding signal was 10800 fluorescence intensity (a.u.).

In the case of “AGAAGATCAGAACAAAGACAAATAAAGAATGCTTCACGGGCGGAGTCACCTAGTGCAG”, the binding signal was 10600 fluorescence intensity (a.u.).

Consider “TTTTACCTCTCTCGTTTGTCGGATAGTAAATTTATTTTTACGGAGTCACCTAGTGCAG”, for which the binding signal is 9090 fluorescence intensity (a.u.).

Take “CCTTGTGCTGTCGTCGTCGACCTACCCTACCCCGTGGAGTCGGAGTCACCTAGTGCAG”: the binding signal was 8210 fluorescence intensity (a.u.).

Take “GAGGGGTTTTTTTTTTTCTTTGTGTTCTCAATTTTGCGTGCGGAGTCACCTAGTGCAG”: the binding signal was 14300 fluorescence intensity (a.u.).

Turning to “CCCTCCGCTGAGGTTGCGGTTGATGATCTTTCATCAGTGACGGAGTCACCTAGTGCAG”, the binding signal is 8590 fluorescence intensity (a.u.).

Consider “CACCCGATCCACGTGCCTCGTGGGGTTGGTTTGGTTTGGACGGAGTCACCTAGTGCAG”, for which the binding signal is 8440 fluorescence intensity (a.u.).

With “ACCTCGCGCTTTCTTGGCCGCTTCGCCCGCGACGCAACGGCGGAGTCACCTAGTGCAG”, the binding signal was 10300 fluorescence intensity (a.u.).

Turning to “GTGGGTGTGGCAATAAAGGTGAAGTCTTCAAGTTTGCAATCGGAGTCACCTAGTGCAG”, the binding signal was 9480 fluorescence intensity (a.u.).

In the case of “TTGTTTTGATTGTCATCCACTACCAACAATCGATATACTCCGGAGTCACCTAGTGCAG”, the binding signal is 9920 fluorescence intensity (a.u.).

Turning to “CTTCTCCGACTCCGGCCACCGACCACCGCCCCTGCGTTCCCGGAGTCACCTAGTGCAG”, the binding signal was 9920 fluorescence intensity (a.u.).

As to “AGATCCCCACGCAGACGCACGCCTCGCTATCCCTCGCCGTCGGAGTCACCTAGTGCAG”, the binding signal was 10600 fluorescence intensity (a.u.).

For the sequence “GGAGTATTATTGTGCATTTAGTTAGTTGGGATGGCATAAACGGAGTCACCTAGTGCAG”, the binding signal was 8810 fluorescence intensity (a.u.).

In the case of “TTCAGCATAATTTCTCCTTCATTATTGGCCTTTTTAATTACGGAGTCACCTAGTGCAG”, the binding signal was 9850 fluorescence intensity (a.u.).

As to “TTAGCTGTGTGTGTTCTTACGCTTGGGTTGGCGATTGAATCGGAGTCACCTAGTGCAG”, the binding signal was 9810 fluorescence intensity (a.u.).

For the sequence “CCCTATCCATTAATTACTCGCTTCGTGGTCGGAATCCATGCGGAGTCACCTAGTGCAG”, the binding signal is 8200 fluorescence intensity (a.u.).

Regarding “CCATCCAGCGTCTCTCATGGGCTTTCACAATTTCTGTGAGCGGAGTCACCTAGTGCAG”, the binding signal was 8520 fluorescence intensity (a.u.).

As for “GGCGAAGTGGTGGGTGCGTTGGGGCGAGGCGGAGCGGTGGCGGAGTCACCTAGTGCAG”, the binding signal is 8050 fluorescence intensity (a.u.).

“CTCCGTGTTGTAGTGTTGTGTAGCAGTAGTCCACCGCTGACGGAGTCACCTAGTGCAG”: the binding signal was 8270 fluorescence intensity (a.u.).

As for “GCCTCTCGTGGGCCGTCGCCGCCCACCCGCCCGGACACGTCGGAGTCACCTAGTGCAG”, the binding signal is 8380 fluorescence intensity (a.u.).

“CGCGAGGGCGTGGTGGTGGTGGTGGTCGTCATCATCGACGCGGAGTCACCTAGTGCAG”: the binding signal was 8440 fluorescence intensity (a.u.).

On to “TGCAGATCCCTTAAACCGCCCCTCACCACACGCGCCGTCTCGGAGTCACCTAGTGCAG”, for which the binding signal is 9130 fluorescence intensity (a.u.).

Consider “CCTCTCTCTCTCTCTCTCTCTCTAGATATCTCTCTCTTTTCGGAGTCACCTAGTGCAG”, for which the binding signal is 8320 fluorescence intensity (a.u.).

As for “TATATACTCCCTCCATATTTTAATGTATGACGCCGTTGACCGGAGTCACCTAGTGCAG”, the binding signal is 9880 fluorescence intensity (a.u.).

As to “CCCTACTCCGTCGTCGCTCGCCTGCTCCGCCGTTCTCCTCCGGAGTCACCTAGTGCAG”, the binding signal was 8380 fluorescence intensity (a.u.).

With “CCAATCGTCATCCATGCATGCTGCAACTGTAAGCTTTTCCCGGAGTCACCTAGTGCAG”, the binding signal was 9360 fluorescence intensity (a.u.).

Take “CTCGCCTCGCCGCAAATCTCACCACTCGCCACCGCCTCCCCGGAGTCACCTAGTGCAG”: the binding signal is 8960 fluorescence intensity (a.u.).

As for “AATATTTTTTTGAGGTTTTTTGTTGCGTTTAAAATTCAAACGGAGTCACCTAGTGCAG”, the binding signal is 8110 fluorescence intensity (a.u.).

Take “TTTGGTGGTGTTGGGCACGAGCGCCCTCATTGTGTATAGCCGGAGTCACCTAGTGCAG”: the binding signal is 9560 fluorescence intensity (a.u.).

On to “CTCCCGCCCGCCTATATAAACTTGTTCGCGCTCGGCTCCTCGGAGTCACCTAGTGCAG”, for which the binding signal is 8960 fluorescence intensity (a.u.).

Consider “ATTCTGTTATGAACTATGTAAACCTTCTCATGTATATTCACGGAGTCACCTAGTGCAG”, for which the binding signal is 8840 fluorescence intensity (a.u.).

In the case of “ACACTCCTTGATTCTTCTGTATTTCCACTTATTGTTCCAACGGAGTCACCTAGTGCAG”, the binding signal was 16200 fluorescence intensity (a.u.).

Turning to “CAGACAGGGATGTTTCGGTTGAGACCTTCGTTTTCATCTCCGGAGTCACCTAGTGCAG”, the binding signal was 8330 fluorescence intensity (a.u.).

As for “CAGGGGTGGGTTGCGCATCGCCGGAGGCGGCGGGGTTCCGCGGAGTCACCTAGTGCAG”, the binding signal is 16200 fluorescence intensity (a.u.).

Regarding “GTTTGGTTGGAGGTCAGGGTGGATGGGGCAGCCCAAAATACGGAGTCACCTAGTGCAG”, the binding signal was 9960 fluorescence intensity (a.u.).

As for “CACAGCTTCTTAATTACTCCACCTTAATTAATCGATTAATCGGAGTCACCTAGTGCAG”, the binding signal is 8680 fluorescence intensity (a.u.).

As to “CCTCATCTCATCTCCCGAAATACTAATCCAGCTCGATCGTCGGAGTCACCTAGTGCAG”, the binding signal was 9620 fluorescence intensity (a.u.).

On to “TTCTCCTCTGGGCCGCCCTATCCCACTCTCGCCCAGCATCCGGAGTCACCTAGTGCAG”, for which the binding signal is 10100 fluorescence intensity (a.u.).

Take “GATTAGCCATGATGTAGCGTGATTCTTTCCTTGCAGGCTTCGGAGTCACCTAGTGCAG”: the binding signal is 8950 fluorescence intensity (a.u.).

With “ATCAGTAGTTCAGTACTACTTCTTCCGTTTCACAATGTAACGGAGTCACCTAGTGCAG”, the binding signal is 8130 fluorescence intensity (a.u.).
